Data as given in article PMC12040169 (PLOS Biology, 2025).
Some of the results follow.

Tested on: T1, CTL2-GFP (C. trachomatis L2/434/Bu, GFP-expressing)
T1 construct: L2/434/Bu, GFP-expressing
Set-up: species or system HeLa; Intracellular C. trachomatis growth in HeLa cells, bulk GFP fluorescence relative to DMSO
Settings: bulk GFP, single well; 28.5 h, 10 µM; inhibitor

First: CN1CCC(N(C)C(=O)c2ccc3nccnc3c2)CC1 [CBK269096]
Second: Cc1ccc(-c2cc(CC3(C(=O)N(C)C)CCCN(C)C3)on2)cc1 (stereo not drawn) [CBK281695]
The “% of control remaining” value of the first is higher: 146.841% for the first, 119.939% for the second.

Compared with `COC(=O)c1ccsc1NC(=O)c1cc(-c2ccc(C)o2)nc2ccc(Br)cc12` [CBK267752], `Cc1nc(Nc2c(Cl)cc(S(N)(=O)=O)cc2Cl)sc1C(=O)Nc1ccccc1` [CBK265335] is lower in “% of control remaining” value: 141.552% for the first, 109.332% for the second.

Going from `Cc1nn(CCC#N)c(C)c1[C@@H]1C=C[C@@H](NC(=O)Nc2ccccc2)C1` [CBK289173] to `COCC1CCCN1C(=O)c1cnn2c(C)c(Cc3ccccc3)c(C)nc12` (stereo not drawn) [CBK162213], the “% of control remaining” value falls from 147.954% to 120.617%.

Compared with `CC(C)Cn1c(=O)[nH]c2ncc(-c3cccc4ccccc34)nc21` [CBK064194], `Cc1[nH]c2ccccc2c1Cc1n[nH]c(=S)n1Cc1ccccc1` [CBK266985] is lower in “% of control remaining” value: 136.06% for the first, 107.712% for the second.

Going from `O=C/C(=C\Nc1ccc(S(=O)(=O)N2CCCCC2)cc1)c1nc2ccccc2o1` [CBK262281] to `Cc1ccc(S(=O)(=O)Nc2c(C(=O)N3CCOCC3)[nH]c3ccccc23)cc1` [CBK050066], the “% of control remaining” value rises from 106.587% to 118.481%.

Compared with `Nc1nc(=O)c2cnc3c(F)cccc3c2s1` [CBK291249], `Nc1ncc(-c2cc3ccccc3s2)nc1-c1ccc(CCC(=O)O)cc1` [CBK064134] is higher in “% of control remaining” value: 146.779% for the first, 149.734% for the second.

Going from `CCOC(=O)c1c(CN(C)C)n(-c2ccccc2)c2cc(Br)c(OC)cc12` [CBK115360] to `CCOC(=O)NC(=O)CSc1nnc(C2COc3ccccc3O2)n1-c1ccccc1` (stereo not drawn) [CBK297884], the “% of control remaining” value rises from 82.8251% to 144.967%.

First: Cc1ccc(NS(=O)(=O)N(C)C)c(C)c1 [CBK005246]
Second: CC(C)(C)OC(=O)Nc1cc(Cl)ccc1C(=O)O [CBK200024]
The “% of control remaining” value of the first is lower: 97.4451% for the first, 174.467% for the second.

Going from `CS(=O)(=O)c1cccc(-c2cnc(NCCOc3ccccc3)c(C(=O)NCCc3ccccc3)c2)c1` [CBK076201] to `N#Cc1c(O)nc(SCC(=O)Nc2ccc(Oc3ccccc3)cc2)nc1-c1ccccc1` [CBK266607], the “% of control remaining” value falls from 168.583% to 109.95%.

Compared with `CCCN(Cc1cccs1)C1Cc2cc(OC)c(OC)cc2C1` [CBK017567C], `COc1ccc([C@]23CN(C)C[C@H]2CCN(C(=O)Nc2ccc(Cl)c(F)c2)C3)cc1OC` [CBK081140T] is higher in “% of control remaining” value: 86.7603% for the first, 118.991% for the second.

First: CC(=O)Nc1ccc(-c2cc(-c3ccc(NC(C)=O)cc3)nc(-c3ccc([N+](=O)[O-])cc3)n2)cc1 [CBK261273]
Second: Cc1cccnc1NC(=S)NC(=O)c1ccc([N+](=O)[O-])cc1 [CBK263931]
The “% of control remaining” value of the first is lower: 102.673% for the first, 122.54% for the second.

Compared with `O=C(CCCc1c[nH]c2ccccc12)Nc1cccc(C(=O)O)c1` [CBK287175], `O=C(Nc1ccncc1)c1cccn(Cc2ccccc2F)c1=O` [CBK287738] is lower in “% of control remaining” value: 86.2912% for the first, 56.1012% for the second.

Going from `Cn1ccc(C2CCCCCN2C(=O)c2cc(C3CC3)on2)n1` (stereo not drawn) [CBK283050] to `CC1CCc2nc3ncn(CC(=O)NC4CC4)c(=O)c3cc2C1` (stereo not drawn) [CBK294401], the “% of control remaining” value rises from 127.475% to 136.382%.

Going from `CC[C@H]1CN(C(=O)c2cccnc2)CC[C@H]1CC(=O)NCc1ccc2c(c1)OCO2` [CBK288771] to `Cc1cccc(-c2csc3c(=O)[nH]c(N4CCC(C(=O)NCCc5cccnc5)CC4)nc23)c1` [CBK215627], the “% of control remaining” value rises from 113.684% to 136.827%.

Going from `O=C(COc1ccccc1)Nc1nccs1` [CBK058018] to `O=C(NCc1cccs1)c1ccc2nc[nH]c2c1` [CBK153320], the “% of control remaining” value falls from 119.873% to 118.972%.

Compared with `CC(Sc1ccc(Cl)cc1)C(=O)NCCN1CCOCC1` (stereo not drawn) [CBK269316], `CCC(CN1CCOCC1)NC(=O)Cc1coc2cc(C)c(C)cc12` (stereo not drawn) [CBK282811] is higher in “% of control remaining” value: 105.848% for the first, 120.607% for the second.

First: COc1ccc(Oc2nccc(N3CCCN(CCc4ccc5ccccc5c4)CC3)n2)cc1OC [CBK084164]
Second: COc1cc(CN2CCN(C/C=C/c3ccccc3)CC2)cc(I)c1O [CBK261882]
The “% of control remaining” value of the first is higher: 106.652% for the first, 90.4175% for the second.

Compared with `COc1ccc(-c2cn(-c3ccc4c(c3)CCO4)nn2)cc1` [CBK113027], `COc1ccc(C2CC(c3ccccc3O)=NN2)cc1` (stereo not drawn) [CBK287281] is higher in “% of control remaining” value: 100% for the first, 156.078% for the second.

First: NC(=O)CN(Cc1ccc(Cl)cc1)S(=O)(=O)c1ccccc1 [CBK264149]
Second: CN(CC(=O)O)S(=O)(=O)c1ccc(F)c2ccccc12 [CBK268447]
The “% of control remaining” value of the first is lower: 117.458% for the first, 139.473% for the second.

Compared with `CC(C)NC(=O)CCNc1ncc(C(N)=O)cc1Cl` [CBK306373], `NS(=O)(=O)c1cc(C(=O)OCCNC(=O)c2ccccc2)c(Cl)cc1Cl` [CBK265193] is higher in “% of control remaining” value: 90.7464% for the first, 133.187% for the second.

First: CCn1c2ccccc2c2cc(Nc3cc(-c4ccc(OC(F)(F)F)cc4)ncn3)ccc21 [CBK090842]
Second: CCOc1cccc(-c2cn3ccnc3c(Nc3ccc(Cl)cc3)n2)c1 [CBK066505]
The “% of control remaining” value of the first is lower: 123.569% for the first, 136.598% for the second.

Going from `O=C(O)CCCCCNc1ncnc2sc3c(c12)CCCC3` [CBK077446] to `CC(C)(C)C(=O)NC(NC(=S)Nc1sc2c(c1C(N)=O)CCCC2)C(Cl)(Cl)Cl` (stereo not drawn) [CBK261052], the “% of control remaining” value falls from 92.2309% to 82.9659%.

Going from `COc1ccccc1C1OC(=O)C[C@@H]1C(=O)Nc1cc(C(C)(C)C)on1` (stereo partly drawn) [CBK021439] to `COc1ccc(OCc2ncc(C(C)(C)C)o2)c(C(C)=O)c1` [CBK305079], the “% of control remaining” value falls from 107.244% to 105.062%.

Compared with `CC(C)NC(=O)NC[C@H]1C[C@@H]2CC[N@]1C[C@@H]2CN1CCN(c2ncccn2)CC1` [CBK289116], `CC(=O)c1ccc(NC(=O)NC[C@H]2C[C@@H]3CC[N@]2C[C@@H]3CN2CCCCC2)cc1` [CBK288766] is lower in “% of control remaining” value: 128.119% for the first, 125.903% for the second.

Going from `O=[N+]([O-])c1cccc(S(=O)(=O)NCc2ccccn2)c1` [CBK263669] to `Cc1cccc(CCNC(=O)N2CCN(Cc3ccccn3)CC2)c1` [CBK304057], the “% of control remaining” value falls from 112.268% to 102.802%.

First: Cc1cnc(CNC(=O)/C=C/c2ccc(C(C)C)cc2)cn1 [CBK149625]
Second: C[C@@H](Nc1nc(-c2ccco2)cnc1N)c1ccccc1 [CBK063737]
The “% of control remaining” value of the first is lower: 101.739% for the first, 195.648% for the second.

Going from `COCc1ccccc1Cn1cnc2ccccc21` [CBK267496] to `CCN(CC)CCn1c(=N)n(CC(=O)c2cccs2)c2ccccc21` [CBK278240B], the “% of control remaining” value rises from 88.0323% to 100%.

First: OCCN(CCO)c1cncc(-c2ccc(F)c(Cl)c2)n1 [CBK066015]
Second: Cc1c(C(=O)N2CCC[C@@H]2CO)nnn1Cc1ccc(F)cc1F [CBK304071]
The “% of control remaining” value of the first is higher: 218.254% for the first, 133.657% for the second.

Compared with `Cc1cnc2[nH]c(C(C)C)c(CN(C)C)c2c1` [CBK284758], `CCOC(=O)CN1C(=O)S/C(=C/c2cc(C)n(-c3cc(C)ccn3)c2C)C1=O` [CBK264731] is lower in “% of control remaining” value: 143.764% for the first, 117.182% for the second.

First: CC(C)(C)OC(=O)NCCNCc1ccccc1Br [CBK056693]
Second: Cc1cccc(OCCNC(=O)CN2CCCC2Cn2cncn2)c1 (stereo not drawn) [CBK305345]
The “% of control remaining” value of the first is higher: 169.271% for the first, 97.7822% for the second.

Going from `O=C(O)CCc1ccc(-c2ccccc2)n1CC1CCCO1` (stereo not drawn) [CBK267955] to `CC(Cn1cncn1)C(=O)N1CCCCC1CCc1ccccc1` (stereo not drawn) [CBK282265], the “% of control remaining” value rises from 96.9146% to 108.104%.

First: CCN1C(=O)CC(C(=O)O)S/C1=N\c1ccc(OC)cc1 (stereo not drawn) [CBK287266]
Second: CC(=O)c1sc(NC(=O)c2ccc(N3C(=O)CCC3=O)cc2)nc1C [CBK287334]
The “% of control remaining” value of the first is higher: 135.696% for the first, 132.314% for the second.

Compared with `CC(NS(=O)(=O)c1cccs1)c1ccccc1` (stereo not drawn) [CBK043601], `CCCn1cc(NC(=O)C2(c3ccccc3)CCOCC2)ccc1=O` [CBK304905] is lower in “% of control remaining” value: 106.954% for the first, 84.0195% for the second.

Going from `CC(=O)c1ccc(-c2cc(F)cc3c2OC(CN)C3)s1` (stereo not drawn) [CBK307513] to `Cc1c(CC(=O)O)c2c(n1Cc1ccc(F)cc1)CCCC2=O` [CBK287078], the “% of control remaining” value rises from 67.7229% to 109.129%.

Going from `c1nc(OC2CCOC2)cc(N2CCCC2)n1` (stereo not drawn) [CBK115899] to `O=C(N[C@@H]1CNCCC[C@H]1O)c1ccc(OCCN2CCCC2)cc1` [CBK289070], the “% of control remaining” value falls from 128.388% to 123.17%.

First: CC(=O)N1CCC2(CCCC[C@H]3CN(C(C)C)CC[C@@H]3NC(=O)CNC2=O)CC1 [CBK292133]
Second: O=C(O)C[C@@H]1CCN(C(=O)C2CCCCC2)C[C@@H]1CCN1CCCCC1 [CBK288781]
The “% of control remaining” value of the first is lower: 111.251% for the first, 136.044% for the second.

Compared with `CS(=O)(=O)c1sc(C(=O)NC(=S)Nc2cccc(C(F)(F)F)c2)c2c1C=CCC2` [CBK005654], `CCn1cc(NC(=O)CC2CCN(Cc3cccc(C(F)(F)F)c3)CC2)cn1` [CBK286118] is lower in “% of control remaining” value: 105.269% for the first, 100.806% for the second.

First: O=C(O)C[C@]1(C(=O)NC2CCCCCC2)CC(/C=C/c2ccccc2)=NO1 [CBK286732]
Second: COC(=O)[C@@H](C)NC(=O)[C@@H]1CN(C(=O)NC(C)C)CCN1C(=O)C1CCCCC1 [CBK289622]
The “% of control remaining” value of the first is higher: 136.6% for the first, 123.246% for the second.

Compared with `Cc1cccc(-c2csc3c(=O)[nH]c(N4CCC(C(=O)NCc5ccncc5)CC4)nc23)c1` [CBK215625], `COc1ccc(OC)c(C(C)NC(=O)C2CCN(Cc3cccc(C(F)(F)F)c3)CC2)c1` (stereo not drawn) [CBK148764] is higher in “% of control remaining” value: 110.283% for the first, 167.565% for the second.
